Some of the results follow.
Experiments:
Experiment in all cases: log2 fold change, soluble protein after heating vs DMSO (PISA); higher = thermal stabilisation; K562 cells, 10 uM, 30 min; active = over 0.2 and 3.5 SD of the protein, either way, in both replicates (recomputed)
[1] = compound: CC1=C2C(=CC=C1)N=C(N(C2=O)C3=CC=CC=C3C)CN4C=NC5=C(N=CN=C54)N
Procedure, shortened: (§1)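 Thermal stability values are relative to control samples and come from duplicates. They are expressed as log2 fold changes. For measurement, K562 cells (2×10^6 cells/mL) received 10 μM compound for 30 min, and aliquots were heated for 3 min over 48°C-58°C, pooled, and extracted at 4°C in PBS with 0.5% NP-40. Soluble protein, the supernatant after 21,000xg for 90 min, was quantified by TMTpro 16plex LC-MS/MS with equalised channel sums.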

By UniProt entry, the sequences of proteins in these tests, tags left out. Where a name states a change or a piece, a line headed by the entry shows the natural chain unless it says otherwise.
UniProt Q6P5S2: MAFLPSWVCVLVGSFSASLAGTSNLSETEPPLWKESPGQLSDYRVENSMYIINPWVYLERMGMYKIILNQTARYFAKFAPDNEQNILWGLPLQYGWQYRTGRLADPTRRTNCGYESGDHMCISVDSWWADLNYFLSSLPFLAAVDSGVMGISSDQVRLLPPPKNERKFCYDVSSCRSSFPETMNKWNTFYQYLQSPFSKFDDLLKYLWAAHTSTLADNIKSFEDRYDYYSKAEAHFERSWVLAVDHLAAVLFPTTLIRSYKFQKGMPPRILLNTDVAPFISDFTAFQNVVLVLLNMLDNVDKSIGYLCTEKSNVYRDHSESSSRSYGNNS
UniProt P02750: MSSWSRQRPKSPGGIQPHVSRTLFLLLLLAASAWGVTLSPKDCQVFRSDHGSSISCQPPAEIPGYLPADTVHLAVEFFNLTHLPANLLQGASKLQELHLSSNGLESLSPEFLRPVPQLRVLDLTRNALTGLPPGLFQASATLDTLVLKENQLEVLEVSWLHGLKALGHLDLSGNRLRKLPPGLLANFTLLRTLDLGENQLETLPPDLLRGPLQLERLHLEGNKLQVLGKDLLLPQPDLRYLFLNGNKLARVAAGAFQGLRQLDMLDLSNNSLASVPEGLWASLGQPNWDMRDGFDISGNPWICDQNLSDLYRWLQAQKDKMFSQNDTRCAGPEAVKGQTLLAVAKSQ
UniProt Q5T7N2: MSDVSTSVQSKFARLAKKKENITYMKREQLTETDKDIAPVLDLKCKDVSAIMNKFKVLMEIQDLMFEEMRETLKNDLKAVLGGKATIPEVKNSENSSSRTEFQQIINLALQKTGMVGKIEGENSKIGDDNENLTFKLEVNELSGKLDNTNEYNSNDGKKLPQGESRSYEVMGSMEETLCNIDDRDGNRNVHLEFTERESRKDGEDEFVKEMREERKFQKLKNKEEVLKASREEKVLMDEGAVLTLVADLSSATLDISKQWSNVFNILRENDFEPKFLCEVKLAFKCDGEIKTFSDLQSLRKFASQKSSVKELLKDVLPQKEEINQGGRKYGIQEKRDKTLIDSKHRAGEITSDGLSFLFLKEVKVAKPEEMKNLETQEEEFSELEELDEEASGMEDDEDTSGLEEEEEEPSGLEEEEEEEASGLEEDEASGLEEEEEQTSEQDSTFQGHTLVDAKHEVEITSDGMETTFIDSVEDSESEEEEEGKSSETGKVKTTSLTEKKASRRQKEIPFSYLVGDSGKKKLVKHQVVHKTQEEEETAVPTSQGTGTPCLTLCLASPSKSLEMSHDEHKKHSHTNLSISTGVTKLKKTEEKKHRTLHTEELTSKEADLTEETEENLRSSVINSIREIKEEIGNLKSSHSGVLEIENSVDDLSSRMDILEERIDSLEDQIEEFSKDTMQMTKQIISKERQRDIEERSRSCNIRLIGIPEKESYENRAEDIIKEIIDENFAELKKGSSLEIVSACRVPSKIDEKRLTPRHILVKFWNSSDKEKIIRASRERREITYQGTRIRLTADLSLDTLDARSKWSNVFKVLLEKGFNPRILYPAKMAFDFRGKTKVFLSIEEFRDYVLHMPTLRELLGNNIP
UniProt Q6P1M3: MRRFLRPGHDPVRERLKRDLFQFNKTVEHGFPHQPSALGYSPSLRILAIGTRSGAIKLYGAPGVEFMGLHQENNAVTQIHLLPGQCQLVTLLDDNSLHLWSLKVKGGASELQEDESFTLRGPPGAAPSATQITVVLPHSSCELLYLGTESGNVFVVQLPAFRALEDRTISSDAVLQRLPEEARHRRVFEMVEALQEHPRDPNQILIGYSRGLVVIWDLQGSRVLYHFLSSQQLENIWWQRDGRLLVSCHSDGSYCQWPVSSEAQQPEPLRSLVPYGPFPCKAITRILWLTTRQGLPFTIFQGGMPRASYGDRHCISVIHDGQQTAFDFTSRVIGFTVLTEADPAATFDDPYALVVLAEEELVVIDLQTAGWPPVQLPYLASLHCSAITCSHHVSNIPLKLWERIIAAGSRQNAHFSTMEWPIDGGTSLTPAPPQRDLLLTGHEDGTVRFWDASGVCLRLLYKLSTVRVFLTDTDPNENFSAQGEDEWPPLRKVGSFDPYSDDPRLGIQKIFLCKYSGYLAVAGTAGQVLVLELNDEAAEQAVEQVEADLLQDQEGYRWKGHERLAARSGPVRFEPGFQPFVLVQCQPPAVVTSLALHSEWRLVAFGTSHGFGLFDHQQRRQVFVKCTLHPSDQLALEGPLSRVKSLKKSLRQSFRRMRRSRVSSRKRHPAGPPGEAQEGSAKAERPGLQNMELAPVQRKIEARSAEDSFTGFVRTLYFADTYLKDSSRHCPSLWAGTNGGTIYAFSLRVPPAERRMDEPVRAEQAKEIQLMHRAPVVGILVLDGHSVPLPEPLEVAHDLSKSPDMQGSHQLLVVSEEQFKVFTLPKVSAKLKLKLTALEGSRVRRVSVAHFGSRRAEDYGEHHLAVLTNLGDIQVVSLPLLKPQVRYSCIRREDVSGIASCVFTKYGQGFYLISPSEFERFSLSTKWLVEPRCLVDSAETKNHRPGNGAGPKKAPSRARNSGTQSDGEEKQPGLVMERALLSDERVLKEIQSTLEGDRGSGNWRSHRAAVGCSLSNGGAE
UniProt P61968: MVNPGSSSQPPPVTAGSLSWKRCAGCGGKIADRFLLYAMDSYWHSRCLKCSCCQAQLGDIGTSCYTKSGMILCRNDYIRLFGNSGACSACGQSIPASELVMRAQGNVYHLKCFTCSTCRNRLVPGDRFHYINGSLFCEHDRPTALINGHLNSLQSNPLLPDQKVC
UniProt P49916: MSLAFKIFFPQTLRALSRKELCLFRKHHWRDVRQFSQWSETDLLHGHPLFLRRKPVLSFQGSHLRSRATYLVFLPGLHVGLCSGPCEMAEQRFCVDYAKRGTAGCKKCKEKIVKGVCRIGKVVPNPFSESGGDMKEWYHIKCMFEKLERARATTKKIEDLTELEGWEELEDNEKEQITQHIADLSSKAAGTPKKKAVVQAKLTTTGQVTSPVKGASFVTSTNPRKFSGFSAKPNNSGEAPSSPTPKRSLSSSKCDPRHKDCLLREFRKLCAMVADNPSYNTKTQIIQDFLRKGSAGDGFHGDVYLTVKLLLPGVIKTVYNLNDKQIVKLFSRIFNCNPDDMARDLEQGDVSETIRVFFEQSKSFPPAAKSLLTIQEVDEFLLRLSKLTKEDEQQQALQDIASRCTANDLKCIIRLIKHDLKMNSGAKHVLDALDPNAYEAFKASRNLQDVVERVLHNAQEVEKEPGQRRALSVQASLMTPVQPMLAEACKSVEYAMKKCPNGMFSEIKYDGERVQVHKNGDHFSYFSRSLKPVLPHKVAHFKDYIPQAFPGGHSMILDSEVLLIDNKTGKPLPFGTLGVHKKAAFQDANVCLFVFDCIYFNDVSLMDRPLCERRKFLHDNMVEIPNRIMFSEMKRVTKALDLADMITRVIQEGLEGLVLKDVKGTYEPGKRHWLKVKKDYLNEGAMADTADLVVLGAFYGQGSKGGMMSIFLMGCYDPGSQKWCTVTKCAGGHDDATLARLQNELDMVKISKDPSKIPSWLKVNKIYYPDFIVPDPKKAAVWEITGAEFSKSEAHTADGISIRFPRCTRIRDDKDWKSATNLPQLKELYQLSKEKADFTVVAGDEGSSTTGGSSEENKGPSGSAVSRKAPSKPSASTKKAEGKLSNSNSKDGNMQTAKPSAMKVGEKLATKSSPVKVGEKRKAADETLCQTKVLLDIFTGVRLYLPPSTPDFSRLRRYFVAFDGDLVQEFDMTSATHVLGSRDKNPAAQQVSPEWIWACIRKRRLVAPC
UniProt P80188: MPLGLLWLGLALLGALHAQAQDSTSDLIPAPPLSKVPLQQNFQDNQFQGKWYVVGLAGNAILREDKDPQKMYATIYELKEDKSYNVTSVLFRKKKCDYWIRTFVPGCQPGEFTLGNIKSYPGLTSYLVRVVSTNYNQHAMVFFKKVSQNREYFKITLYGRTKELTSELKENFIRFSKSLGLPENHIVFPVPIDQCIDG
UniProt Q643R3: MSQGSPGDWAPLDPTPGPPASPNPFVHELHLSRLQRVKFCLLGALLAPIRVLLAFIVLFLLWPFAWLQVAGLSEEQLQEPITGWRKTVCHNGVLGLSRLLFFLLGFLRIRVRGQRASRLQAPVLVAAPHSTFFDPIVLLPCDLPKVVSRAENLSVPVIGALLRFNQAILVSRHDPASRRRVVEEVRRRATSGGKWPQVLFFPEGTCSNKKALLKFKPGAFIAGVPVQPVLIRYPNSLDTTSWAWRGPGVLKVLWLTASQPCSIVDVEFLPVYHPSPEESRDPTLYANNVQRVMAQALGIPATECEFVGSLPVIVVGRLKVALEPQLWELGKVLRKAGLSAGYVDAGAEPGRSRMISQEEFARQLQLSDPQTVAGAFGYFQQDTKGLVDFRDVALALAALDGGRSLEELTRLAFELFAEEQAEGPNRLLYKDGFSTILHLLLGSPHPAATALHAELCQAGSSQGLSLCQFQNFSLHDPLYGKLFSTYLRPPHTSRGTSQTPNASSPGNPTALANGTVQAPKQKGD
UniProt Q13571: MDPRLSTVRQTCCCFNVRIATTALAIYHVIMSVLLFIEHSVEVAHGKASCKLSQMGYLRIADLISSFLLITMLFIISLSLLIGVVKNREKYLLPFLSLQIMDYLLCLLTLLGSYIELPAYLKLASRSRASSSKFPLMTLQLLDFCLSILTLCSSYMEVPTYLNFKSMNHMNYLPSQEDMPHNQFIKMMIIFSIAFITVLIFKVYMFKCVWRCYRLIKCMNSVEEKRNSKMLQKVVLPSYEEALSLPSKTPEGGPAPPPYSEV
UniProt Q6PJG9: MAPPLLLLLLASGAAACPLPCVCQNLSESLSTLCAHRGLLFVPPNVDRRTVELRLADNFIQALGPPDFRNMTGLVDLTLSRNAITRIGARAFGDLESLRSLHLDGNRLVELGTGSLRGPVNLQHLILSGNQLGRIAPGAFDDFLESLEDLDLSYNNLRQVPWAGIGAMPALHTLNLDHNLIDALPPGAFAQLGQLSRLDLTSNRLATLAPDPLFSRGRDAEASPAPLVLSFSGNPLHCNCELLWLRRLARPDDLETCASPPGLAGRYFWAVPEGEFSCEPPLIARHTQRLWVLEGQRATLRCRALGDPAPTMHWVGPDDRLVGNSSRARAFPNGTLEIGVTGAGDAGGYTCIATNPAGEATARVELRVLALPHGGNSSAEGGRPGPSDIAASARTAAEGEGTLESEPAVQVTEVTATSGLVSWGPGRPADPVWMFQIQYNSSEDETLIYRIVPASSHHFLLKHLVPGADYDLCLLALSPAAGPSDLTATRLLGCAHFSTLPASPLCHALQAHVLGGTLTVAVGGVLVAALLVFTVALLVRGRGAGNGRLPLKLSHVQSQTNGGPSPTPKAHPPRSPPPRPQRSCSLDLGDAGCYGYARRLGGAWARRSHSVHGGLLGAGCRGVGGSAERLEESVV
UniProt Q6ZUX7: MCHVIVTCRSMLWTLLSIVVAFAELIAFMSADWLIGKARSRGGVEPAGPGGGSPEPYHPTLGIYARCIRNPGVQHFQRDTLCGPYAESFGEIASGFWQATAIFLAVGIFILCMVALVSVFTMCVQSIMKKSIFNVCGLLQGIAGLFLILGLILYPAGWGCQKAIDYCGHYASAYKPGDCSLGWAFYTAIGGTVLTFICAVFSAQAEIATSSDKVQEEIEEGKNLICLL
UniProt P53667: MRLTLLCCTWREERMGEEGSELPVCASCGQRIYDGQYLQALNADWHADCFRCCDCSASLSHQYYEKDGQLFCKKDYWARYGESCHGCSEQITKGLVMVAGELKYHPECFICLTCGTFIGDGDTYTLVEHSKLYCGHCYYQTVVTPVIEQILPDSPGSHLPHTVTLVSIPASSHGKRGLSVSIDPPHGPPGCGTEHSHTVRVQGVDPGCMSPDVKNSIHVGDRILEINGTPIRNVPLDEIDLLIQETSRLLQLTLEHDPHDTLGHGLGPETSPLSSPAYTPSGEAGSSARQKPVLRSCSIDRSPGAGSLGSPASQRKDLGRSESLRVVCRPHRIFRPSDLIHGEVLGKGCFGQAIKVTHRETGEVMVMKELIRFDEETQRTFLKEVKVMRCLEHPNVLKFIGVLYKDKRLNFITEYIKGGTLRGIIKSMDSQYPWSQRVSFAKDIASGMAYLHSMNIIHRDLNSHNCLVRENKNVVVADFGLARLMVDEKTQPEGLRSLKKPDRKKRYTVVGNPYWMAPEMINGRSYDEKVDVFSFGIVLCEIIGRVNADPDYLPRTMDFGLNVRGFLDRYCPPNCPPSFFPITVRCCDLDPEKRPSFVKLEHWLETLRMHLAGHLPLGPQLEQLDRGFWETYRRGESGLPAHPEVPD
UniProt Q9GZZ8: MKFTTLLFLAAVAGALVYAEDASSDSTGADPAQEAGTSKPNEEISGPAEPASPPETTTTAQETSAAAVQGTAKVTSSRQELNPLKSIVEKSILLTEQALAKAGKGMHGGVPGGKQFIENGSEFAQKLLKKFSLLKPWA
UniProt Q9H9Z2: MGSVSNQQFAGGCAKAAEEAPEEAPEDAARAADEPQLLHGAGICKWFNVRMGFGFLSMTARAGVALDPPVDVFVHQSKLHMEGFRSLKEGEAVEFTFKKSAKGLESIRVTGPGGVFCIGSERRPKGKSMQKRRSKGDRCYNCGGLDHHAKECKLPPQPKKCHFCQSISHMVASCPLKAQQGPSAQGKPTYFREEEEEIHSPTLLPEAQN

[2] = compound: Cc1sc2c(c1C)C(c1ccc(Cl)cc1)=N[C@@H](CC(=O)OC(C)(C)C)c1nnc(C)n1-2
Procedure, shortened: as §1

[3] = compound: C1=CC=C(C=C1)[C@H](COC2=CC3=C(C=C2)NC(=O)N3)NC(=O)C4=CC=CN(C4=O)CC5=CC(=C(C=C5)F)F
Procedure, shortened: as §1

[4] = compound: CC1=C(SC2=C1C(=N[C@H](C3=NN=C(N32)C)CC(=O)N)C4=CC=C(C=C4)Cl)C
Procedure, shortened: as §1

[5] = compound: c1ccc([C@@H]2C[C@H]2NC2CCNCC2)cc1
Procedure, shortened: as §1

LIPT2 (UniProt A6NK58)
log2 fold change [1]: inactive: -0.002
log2 fold change [2]: inactive: 0.004

LANCL3 (UniProt Q6ZV70)
log2 fold change [3]: inactive: 0.047
log2 fold change [4]: inactive: -0.084
log2 fold change [5]: inactive: 0.178

LEG1 (UniProt Q6P5S2)
log2 fold change [3]: inactive: -0.345
log2 fold change [4]: inactive: 0.013
log2 fold change [1]: inactive: 0.245
log2 fold change [5]: inactive: -0.135

LRP6 (UniProt O75581)
log2 fold change [3]: inactive: 0.083
log2 fold change [4]: inactive: 0.073
log2 fold change [2]: inactive: -0.058
log2 fold change [5]: inactive: 0.215

LIMD2 (UniProt Q9BT23)
log2 fold change [4]: inactive: 0.074
log2 fold change [2]: inactive: 0.107
log2 fold change [5]: inactive: 0.008

LRRC14 (UniProt Q15048)
log2 fold change [3]: inactive: -0.098
log2 fold change [1]: inactive: 0.074
log2 fold change [2]: inactive: -0.022

LRP10 (UniProt Q7Z4F1)
log2 fold change [3]: inactive: 0
log2 fold change [4]: inactive: -0.075
log2 fold change [5]: inactive: 0.226

LRG1 (UniProt P02750)
log2 fold change [4]: inactive: -0.139
log2 fold change [1]: inactive: 0.211
log2 fold change [2]: inactive: -0.159
log2 fold change [5]: inactive: -0.256

L1TD1 (UniProt Q5T7N2)
log2 fold change [4]: inactive: -0.043
log2 fold change [2]: inactive: 0.097
log2 fold change [5]: inactive: 0.087

LETMD1 isoform 7 (UniProt Q6P1Q0)
log2 fold change [3]: inactive: 0.037
log2 fold change [2]: inactive: 0.01

LLGL2 (UniProt Q6P1M3)
log2 fold change [3]: inactive: -0.02
log2 fold change [4]: inactive: -0.021
log2 fold change [5]: inactive: 0.025

LDHD (UniProt Q86WU2)
log2 fold change [4]: inactive: 0.066
log2 fold change [5]: inactive: 0.11

LAMA2 (UniProt P24043)
log2 fold change [3]: inactive: -0.172
log2 fold change [4]: inactive: -0.12
log2 fold change [5]: inactive: -0.024

LMO4 (UniProt P61968)
log2 fold change [3]: inactive: 0.131
log2 fold change [4]: inactive: 0.114
log2 fold change [2]: inactive: -0.094
log2 fold change [5]: inactive: 0.003

LIG3 (UniProt P49916)
log2 fold change [4]: inactive: -0.153
log2 fold change [5]: inactive: -0.12

LCN2 isoform 2 (UniProt P80188)
log2 fold change [2]: inactive: 0.029

LPCAT4 (UniProt Q643R3)
log2 fold change [4]: inactive: 0
log2 fold change [5]: inactive: -0.402

LLGL1 (UniProt Q15334)
log2 fold change [4]: inactive: -0.109
log2 fold change [2]: inactive: -0.132
log2 fold change [5]: inactive: 0.044

LAPTM5 (UniProt Q13571)
log2 fold change [3]: inactive: 0.021
log2 fold change [4]: inactive: 0.088
log2 fold change [2]: inactive: 0.032
log2 fold change [5]: inactive: -0.062

LRFN4 (UniProt Q6PJG9)
log2 fold change [3]: inactive: -0.03
log2 fold change [4]: inactive: 0.06
log2 fold change [2]: inactive: -0.05
log2 fold change [5]: inactive: -0.06

LHFPL2 (UniProt Q6ZUX7)
log2 fold change [1]: inactive: 0.011
log2 fold change [2]: inactive: 0.185

LIG4 (UniProt P49917)
log2 fold change [1]: inactive: 0.175

LRP1 (UniProt Q07954)
log2 fold change [1]: inactive: 0.066
log2 fold change [2]: inactive: -0.048

LMNA isoform 2 (UniProt P02545)
log2 fold change [2]: inactive: -0.033

LPL (UniProt P06858)
log2 fold change [4]: inactive: 0.037
log2 fold change [1]: inactive: -0.157
log2 fold change [2]: inactive: -0.039
log2 fold change [5]: inactive: 0.019

LAMA5 (UniProt O15230)
log2 fold change [4]: inactive: -0.123
log2 fold change [1]: inactive: -0.072
log2 fold change [2]: inactive: 0.236
log2 fold change [5]: inactive: 0.141

LIMK1 (UniProt P53667)
log2 fold change [3]: inactive: -0.105
log2 fold change [2]: inactive: 0.232

LRP5 (UniProt O75197)
log2 fold change [4]: inactive: -0.117
log2 fold change [1]: inactive: -0.017
log2 fold change [2]: inactive: 0.163
log2 fold change [5]: inactive: 0.281

LACRT (UniProt Q9GZZ8)
log2 fold change [3]: inactive: 0.172
log2 fold change [4]: inactive: 0.05
log2 fold change [1]: inactive: -0.294
log2 fold change [5]: inactive: 0.246

LIN28A (UniProt Q9H9Z2)
log2 fold change [3]: inactive: -0.16
log2 fold change [4]: inactive: -0.159
log2 fold change [5]: inactive: 0.187

LCMT2 (UniProt O60294)
log2 fold change [3]: inactive: 0
log2 fold change [4]: inactive: 0.062
log2 fold change [1]: inactive: 0.201
log2 fold change [5]: inactive: -0.072
